The values that follow come from paper PMC10579421.

These are yes or no findings as the source states them, for the method shown. Binding seen in cells or lysates may run through a third protein. A yes stands for co-enrichment or nearness to the bait. Other partners may have been found.

The target in this experiment is Flag-NCOR2-013 (human). Description: affinity purification with mass spectrometry.

B1: JunB (protein, UniProt P17275 1-347)
chain: MCTKMEQPFYHDDSYTATGYGRAPGGLSLHDYKLLKPSLAVNLADPYRSLKAPGARGPGPEGGGGGSYFSGQGSDTGASLKLASSELERLIVPNSNGVITTTPTPPGQYFYPRGGGSGGGAGGAGGGVTEEQEGFADGFVKALDDLHKMNHVTPPNVSLGATGGPPAGPGGVYAGPEPPPVYTNLSSYSPASASSGGAGAAVGTGSSYPTTTISYLPHAPPFAGGHPAQLGLGRGASTFKEEPQTVPEARSRDATPPVSPINMEDQERIKVERKRLRNRLAATKCRKRKLERIARLEDKVKTLKAENAGLSSTAGLLREQVAQLKQKVMTHVSNGCQLLLGVKGHAF
Regarding B1, the binding entry was “binds”.
